Measurements taken from PMC7977445.
Results are given in words; binding and its absence hold for the method and conditions named. Binding seen in cells or lysates may run through a third protein. A yes stands for co-enrichment or nearness to the bait. Other partners may have been found.

Chains of the proteins cited; added tags and fusions are not shown.
UniProt Q15910: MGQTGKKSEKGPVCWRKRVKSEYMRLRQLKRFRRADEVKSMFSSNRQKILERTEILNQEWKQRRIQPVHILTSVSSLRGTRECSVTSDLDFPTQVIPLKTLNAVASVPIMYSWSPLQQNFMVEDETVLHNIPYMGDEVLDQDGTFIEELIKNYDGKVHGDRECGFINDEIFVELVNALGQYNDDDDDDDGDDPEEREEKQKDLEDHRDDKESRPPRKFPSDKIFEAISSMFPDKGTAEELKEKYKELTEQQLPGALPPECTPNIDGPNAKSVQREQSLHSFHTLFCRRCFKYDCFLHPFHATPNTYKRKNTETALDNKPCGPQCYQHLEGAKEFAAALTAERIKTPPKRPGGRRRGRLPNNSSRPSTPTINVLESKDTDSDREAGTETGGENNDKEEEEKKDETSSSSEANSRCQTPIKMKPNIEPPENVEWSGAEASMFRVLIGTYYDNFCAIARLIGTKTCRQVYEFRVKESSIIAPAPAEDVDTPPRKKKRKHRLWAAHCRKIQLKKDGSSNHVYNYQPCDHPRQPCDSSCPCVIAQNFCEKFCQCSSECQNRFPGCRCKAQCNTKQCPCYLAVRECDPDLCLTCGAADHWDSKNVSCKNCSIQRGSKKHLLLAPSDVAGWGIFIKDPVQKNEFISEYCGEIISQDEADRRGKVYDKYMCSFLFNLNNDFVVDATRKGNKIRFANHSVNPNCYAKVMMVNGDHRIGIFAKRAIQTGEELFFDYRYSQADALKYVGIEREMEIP
UniProt P17844: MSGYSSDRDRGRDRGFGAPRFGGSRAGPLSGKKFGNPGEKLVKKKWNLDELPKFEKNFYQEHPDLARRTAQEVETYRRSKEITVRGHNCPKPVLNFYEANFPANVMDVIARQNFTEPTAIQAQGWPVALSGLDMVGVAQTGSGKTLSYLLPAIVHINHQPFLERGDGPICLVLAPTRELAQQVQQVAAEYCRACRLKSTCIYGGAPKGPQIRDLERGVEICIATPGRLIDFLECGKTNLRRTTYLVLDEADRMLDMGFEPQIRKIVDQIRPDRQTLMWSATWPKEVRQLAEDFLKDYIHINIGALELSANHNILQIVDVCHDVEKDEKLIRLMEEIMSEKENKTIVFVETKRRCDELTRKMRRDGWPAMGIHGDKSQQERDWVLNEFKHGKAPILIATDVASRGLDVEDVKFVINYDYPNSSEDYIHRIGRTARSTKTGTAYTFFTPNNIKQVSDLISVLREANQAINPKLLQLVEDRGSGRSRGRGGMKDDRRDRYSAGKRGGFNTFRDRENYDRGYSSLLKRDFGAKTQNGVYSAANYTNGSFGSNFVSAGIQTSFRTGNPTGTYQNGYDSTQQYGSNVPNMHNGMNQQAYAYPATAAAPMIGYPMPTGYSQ

Target: enhancer of zeste homologue 2 (EZH2) (human (endogenous in U87-MG)) (UniProt Q15910)
Test: affinity purification with mass spectrometry; anti-EZH2 co-IP from lysates of U87-MG cells overexpressing PRADX or scramble; SDS-PAGE, Coomassie staining; the band that was brighter with PRADX overexpression analysed by MS

DEAD box protein 5 (DDX5) (from UniProt P17844 1-614)
binding: binds
